# Measured values from PubChem BioAssay AID540276 (National Center for Advancing Translational Sciences (NCATS), 2011).
# Hit rate of the full screen: of about 300,000 compounds, about 5,400 (1.8%) were called active. Inconclusive means that the source gave no clear call. Such entries were picked first, then a sample of the others. The call rests on the fitted dose curve; tested in HEK293 cells. Potencies of inconclusive entries are doubtful fits and often do not repeat.
# Experiment: qHTS for inhibitors of binding or entry into cells for Marburg Virus
# Settings: Marburg virus pseudotyped entry inhibition, cell reporter; series mostly up to 37.8 µM
# Potency means the concentration at half of the fitted maximal effect.
row,SMILES,Potency
1,CCC(C(=O)Nc1ccccc1OC)n1c(C(=O)OC)cc2ccsc21 (stereo not given),"inconclusive: 20.6 µM [inhibitor, single point]"
2,COc1ccc(CN=CC2=C(O)CNC2=O)cc1,inactive
3,COc1ccc(Nc2nc(C)c(-c3ccccc3)s2)cc1,"inconclusive: 35.5 µM [inhibitor, single point]"
4,COc1ccc(C(=O)C[n+]2ccc3c(c2)nc(-c2cc(OC)c(OC)cc2OC)n3C)cc1,inactive
5,Cc1sc2c(c1C)C(O)=C(C(=O)Nc1ccccc1)S(=O)(=O)N2C,"inconclusive: 2.82 µM [inhibitor, partial curve, poor fit]"
6,CN1CCN(C(=O)CCCOc2cc(=O)n(C)c3ccccc23)CC1,"inconclusive: 0.13 µM [activator, single point]"
7,Cc1nn(CCOc2ccccc2)c(=O)n1-c1ccc(Cl)cc1,inactive
8,O=C(/C=C/c1cc(Br)ccc1F)Nc1cccnc1,"inconclusive: 3.16 µM [activator, single point]"
9,O=C(Nc1ccc(F)cc1)c1ccc(CSc2ccc(Cl)cc2)o1,"inconclusive: 20 µM [inhibitor, partial curve, poor fit]"
10,CCc1ccc(C(=O)c2cn(Cc3ccccc3)c3cc(OC)c(OC)cc3c2=O)cc1,"inconclusive: 28.2 µM [inhibitor, single point]"
11,Cc1ccccc1N=Nc1ccc(O)c2ncccc12,active: 5.62 µM
12,Cc1ccc(CCNC(=O)C2CCCN(S(=O)(=O)c3ccc4c(c3)oc(=O)n4C)C2)cc1 (stereo not given),inactive
13,COC(=O)C(Cc1ccc(OC(=O)c2ccc(C(F)(F)F)cc2)cc1)N1Cc2ccccc2C1=O (stereo not given),"inconclusive: 1.26 µM [activator, single point]"
14,Cn1c(=O)c2c(nc(CN3CCC(C(N)=O)CC3)n2Cc2c(Cl)cccc2Cl)n(C)c1=O,inactive
15,COc1cc(SC)ccc1C(=O)N1CCC(Cc2ccccc2)CC1,"inconclusive: 29.1 µM [inhibitor, partial curve, poor fit]"
16,CCOc1ccccc1NC(=O)COc1coc(CN2CCCc3ccccc32)cc1=O,"inconclusive: 1.26 µM [inhibitor, partial curve, poor fit]"
17,COc1ccccc1CCNC(=O)C(=O)NCC1OCCN1S(=O)(=O)c1ccc(Br)cc1 (stereo not given),inactive
18,COc1ccc(NC(=O)COC(=O)CCCOc2ccc(Cl)cc2Cl)cc1Cl,inactive
19,O=C(CCCCn1c(=O)c2ccccc2n(Cc2cccc(Cl)c2)c1=O)NCc1ccc2c(c1)OCO2,inactive
20,COc1ccc(/C=N\NC(=O)c2ccc(-c3ccccc3)cc2)cc1COC(C)=O,inactive

# Three structures out of the list, sorted by heavy-atom count, largest number first:
row,SMILES,Potency
17,COc1ccccc1CCNC(=O)C(=O)NCC1OCCN1S(=O)(=O)c1ccc(Br)cc1 (stereo not given),inactive
5,Cc1sc2c(c1C)C(O)=C(C(=O)Nc1ccccc1)S(=O)(=O)N2C,"inconclusive: 2.82 µM [inhibitor, partial curve, poor fit]"
11,Cc1ccccc1N=Nc1ccc(O)c2ncccc12,active: 5.62 µM
